The campaign covered roughly 410,000 compounds. About 310 (0.076%) were called active. The inconclusive results got no clear call from the source; some entries with a clear call stand among them for comparison. Calls come from the whole dose curve; as a rule, active = well fitted activation curve with a large enough effect; inconclusive = small, poorly fitted or top-dose-only effect, or another doubt; inactive = no such curve, though single readings can be large or run the other way. Potencies of inconclusive entries are doubtful fits and often do not repeat.
Target: Parathyroid hormone/parathyroid hormone-related peptide receptor (Homo sapiens) (UniProt Q03431)
Assay: qHTS for PTHR1 Agonists: Primary Screen; note: nearly all actives have a fitted effect of over 55% in size
Details: HEK293 GP2 PTHR1 cells, GloSensor cAMP luminescence, 1 h; activation: at 115 µM (top of the series) unless noted; series mostly up to 115 µM
In short: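 HEK-293-derived GP2 cells expressing PTHR1 and a GloSensor cAMP reporter, 3,000/well, plated overnight, given luciferin plus IBMX (each 0.5 mM as added) for 1 h at 37 °C, then compound for 1 h at 37 °C. Luminescence was read after 15 min at room temperature.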
Potency is the fitted concentration of half-maximal effect.

The chains behind the UniProt entries cited, without tags or fusion partners.
UniProt Q03431, whole entry, looked up: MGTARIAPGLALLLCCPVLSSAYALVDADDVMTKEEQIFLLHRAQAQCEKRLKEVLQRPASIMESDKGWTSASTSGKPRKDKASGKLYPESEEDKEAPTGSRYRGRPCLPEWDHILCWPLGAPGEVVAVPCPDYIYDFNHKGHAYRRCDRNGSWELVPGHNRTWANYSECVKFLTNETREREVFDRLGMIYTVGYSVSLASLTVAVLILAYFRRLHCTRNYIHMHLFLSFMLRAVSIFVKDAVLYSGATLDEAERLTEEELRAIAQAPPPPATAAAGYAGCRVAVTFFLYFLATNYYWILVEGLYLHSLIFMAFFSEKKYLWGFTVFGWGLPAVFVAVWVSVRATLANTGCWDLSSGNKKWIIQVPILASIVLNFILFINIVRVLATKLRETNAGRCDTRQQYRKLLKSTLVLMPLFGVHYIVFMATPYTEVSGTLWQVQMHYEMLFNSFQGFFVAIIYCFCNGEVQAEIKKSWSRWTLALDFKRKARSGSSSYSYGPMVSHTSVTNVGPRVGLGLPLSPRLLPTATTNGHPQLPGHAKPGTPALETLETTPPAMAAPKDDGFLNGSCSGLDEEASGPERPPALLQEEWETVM

| Structure (SMILES) | Potency | activation |
| --- | --- | --- |
| COc1ccc(C2=NOC(C(=O)N3CCN(C(=O)c4ccco4)CC3)C2)cc1OC (stereo not given) | inconclusive: 112 µM [activator, single point] |  |
| C/C(=N/Nc1ccc(C(=O)O)cc1)c1ccc2c(c1)Nc1ccccc1S2 | inactive |  |
| O=C(CC1Nc2ccccc2NC1=O)NC1CCCCC1 (stereo not given) | inconclusive: 5.01 µM [activator, partial curve, poor fit] |  |
| COc1ccccc1N1CCN(C(=O)c2sc3nc(-c4ccc(F)cc4)cn3c2C)CC1 | inactive |  |
| c1ccc(-n2cnnc2SCc2cn3cccnc3n2)cc1 | inconclusive: 112 µM [activator, partial curve, poor fit] |  |
| COc1ccc(NC(=O)c2nnn(Cc3nc(-c4cc(OC)c(OC)c(OC)c4)oc3C)c2C)cc1Cl |  | inconclusive: 40.7% [activator] |
| CCC1Oc2ccccc2N(CC(=O)NCCCN2CCCCC2C)C1=O (stereo not given) |  | inconclusive: 56.2% [activator] |
| COc1ccc(OC)c(-c2cc(C3CCN(c4ncccc4[N+](=O)[O-])CC3)[nH]n2)c1 | inactive |  |
| CCOC(=O)c1c(N)sc(C(=O)OC)c1C | inconclusive: 5.01 µM [activator, full curve] |  |
| CCOC(=O)c1c(O)c2c(n(Cc3ccco3)c1=O)CCCC2 | inactive |  |
| O=C1NC[C@@H](CCCCN2C[C@H](Cc3ccc(O)cc3)N(CCC3CCCCC3)C(=O)C2=O)N(CC2CCCCC2)C1=O |  | inconclusive: -56.8% [activator] |
| CCC(=O)Nc1c(C)cc(C)cc1Cl | inconclusive: 56.2 µM [activator, single point] |  |
| O=C(NCCN1CCN(c2cccc(Cl)c2)CC1)c1ccc(CSc2nc3ccncc3[nH]2)cc1 | inactive |  |
| CCN(CC)CCNC(=O)C(=O)NCC(c1ccc2c(c1)OCO2)N1CCOCC1 (stereo not given) | inconclusive: 44.7 µM [activator, partial curve, poor fit] |  |
| CC(C)(C)OC(=O)N1CCC(NC(=O)c2nc[nH]c2C(=O)NC2CCN(C(=O)OC(C)(C)C)CC2)CC1 | inconclusive: 126 µM [activator, single point] |  |
| Cc1ccc2nsnc2c1NC(=O)CCl | inconclusive: 7.08 µM [activator, partial curve] |  |
| CCOc1cc(/C=N/N=C/c2ccc(O)c(OCC)c2)ccc1O | inactive |  |
| C=CCOn1c(-n2nc(C)cc2C)nc2ccccc2c1=O |  | inconclusive: 0.296% [activator] |
| CCOC(=O)c1c(-c2ccc(C)cc2)csc1NC(=O)c1cc(=O)c2cc(C)ccc2o1 | active: 3.98 µM |  |
| CC1CC(C)CN(CCCNC(=O)Cn2ncn3cccc3c2=O)C1 (stereo not given) | inconclusive: 50.1 µM [activator, single point] |  |
| Cc1ccc2nc(COc3ccccc3NC(=O)COc3ccc(F)cc3)cc(=O)n2c1 |  | inconclusive: 44.8% [activator] |
| COc1ccc(CC(=O)Nc2sc3c(c2C#N)CC(C)(C)NC3(C)C)cc1OC | inconclusive: 39.8 µM [activator, single point] |  |
| O=C(NCc1ccccc1CN1CCCC1)c1cc2ccccc2o1 | inconclusive: 112 µM [activator, single point] |  |
| COc1ccc(NC(=O)CN(C)S(=O)(=O)c2ccc3c(c2)NC(=O)CS3)cc1 |  | inconclusive: -34% [activator] |

| Structure (SMILES) | Potency | activation |
| --- | --- | --- |
| CCOC(=O)C1CCCN(C(=O)Nc2c(-c3ccccc3)noc2C)C1 (stereo not given) | inconclusive: 158 µM [activator, single point] |  |
| Cc1ccc(CC2S/C(=N/c3ccccn3)NC2=O)cc1 (stereo not given) |  | inconclusive: 33.3% [activator] [at 57.5 µM] |
| Cc1ccc(C)c(S(=O)(=O)N2CCC3(CC2)OCCO3)c1 |  | inconclusive: 43.4% [activator] |
| COc1ccccc1S(=O)(=O)NCc1ccc(C(=O)NC2CCC(O)CC2)cc1 (stereo not given) | inconclusive: 3.16 µM [activator, full curve, poor fit] |  |
| COc1cccc(CNS(=O)(=O)c2cnc(N)nc2)c1 | inactive |  |
| COc1ccc2c(n1)Sc1nc3ccccc3nc1N2 | inactive |  |
| Cc1nn(C)c(C)c1C(C)NC(=O)c1ccc(OC2CCN(Cc3ccccn3)CC2)cc1 (stereo not given) |  | inconclusive: 63.6% [activator] |
| CCCCC(=O)NC1(C(F)(F)F)C(=O)N(CC(C)C)C2=C1C(=O)CC(C)(C)C2 (stereo not given) | inconclusive: 3.98 µM [activator, partial curve] |  |
| O=C1C2CCCN2C(=O)N1CCCCN1CCN(c2ccccc2)CC1 (stereo not given) | inactive |  |
| Cc1ccc(C2(C)NC(=O)N(CC(=O)NNC(=O)c3ccccc3F)C2=O)cc1 (stereo not given) | inconclusive: 44.7 µM [activator, partial curve, poor fit] |  |
| CC1(C(=O)NS(=O)(=O)c2cccc(Cl)c2)CCN1C(=O)CC1CC1 (stereo not given) | inactive |  |
| Cc1ccc([N+](=O)[O-])cc1N(CC(=O)Nc1ccc(S(=O)(=O)Nc2cccc(C(F)(F)F)c2)cc1)S(C)(=O)=O | inactive |  |
| Cc1nc2ccccc2n1/N=C/c1ccc([N+](=O)[O-])s1 | inactive |  |
| Cc1ccsc1C(=O)N1CC(=O)Nc2ccccc21 | inconclusive: 39.8 µM [activator, single point] |  |
| CCOc1ccc(C2c3c(oc4ccc(C)cc4c3=O)C(=O)N2CCCN(C)C)cc1OC (stereo not given) |  | inconclusive: 42.9% [activator] |
| N#Cc1c(-n2ccnc2)cccc1-n1ccnc1 | inconclusive: 35.5 µM [activator, single point] |  |
| C/C(=N\NC(=O)c1cccs1)c1ccc2ccccc2c1 | inconclusive: 15.8 µM [activator, partial curve] |  |
| CC(=O)Nc1ccc(NC(=O)c2c(-c3ccccc3)noc2C)cn1 |  | inconclusive: 36.3% [activator] |
| COC(=O)c1c(C)[nH]c(C(=O)COC(=O)CCNS(=O)(=O)c2cccc(C(F)(F)F)c2)c1C |  | inconclusive: 52.9% [activator] |
| O=C(Nc1ccccc1Br)c1cc(CN2CCCC2)on1 | inconclusive: 44.7 µM [activator, partial curve, poor fit] |  |
| O=C(Cn1c[n+](CC(=O)c2ccc([N+](=O)[O-])cc2)cn1)c1ccc([N+](=O)[O-])cc1 |  | inconclusive: -93.1% [activator] |
| CN(c1cccc(NC(=O)Nc2cccc(Cl)c2)c1)S(C)(=O)=O | inactive |  |
| CC(C)C[C@H]1CN([C@@H](CC(C)C)CN2CCC[C@H]2CN2C(=O)C(=O)NC[C@@H]2Cc2ccc(O)cc2)C(=O)C(=O)N1CCc1ccccc1 | inconclusive: 141 µM [activator, single point] |  |
| COc1cc(C(=O)C(=O)c2cc(OC)c(O)c(OC)c2)cc(OC)c1O | inconclusive: 89.1 µM [activator, partial curve, poor fit] |  |

Single values from the results shown.
C=CCOn1c(-n2nc(C)cc2C)nc2ccccc2c1=O | activation: inconclusive: 0.296% [activator]
CCOc1cc(/C=N/N=C/c2ccc(O)c(OCC)c2)ccc1O | Potency: inactive

Next entries follow.

| Structure (SMILES) | Potency | activation |
| --- | --- | --- |
| CC(Sc1nnc(-c2ccncc2)n1C)C(=O)NCC1CCCO1 (stereo not given) | inconclusive: 44.7 µM [activator, partial curve] |  |
| Cc1ccc2c(c1)C(=O)OC(C(=O)Nc1ccccc1C(=O)O)C2 (stereo not given) | inconclusive: 50.1 µM [activator, partial curve, poor fit] |  |
| Cc1c(CC(=O)N2CCN(C(=O)C3COc4ccccc4O3)CC2)c(=O)oc2cc(O)cc(O)c12 (stereo not given) | inconclusive: 50.1 µM [activator, partial curve, poor fit] |  |
| Cc1ccc(S(=O)(=O)Oc2ccc(C3C4=C(CCCC4=O)OC4=C3C(=O)CCC4)cc2)cc1 | inactive |  |
| C/C(CC(=O)c1ccccc1)=N\NC(=O)CC#N | inconclusive: 112 µM [activator, single point] |  |
| O=C(N/N=C/c1ccc(Br)s1)c1c[nH]c2ccccc12 | inactive |  |
| O=c1cc[nH]c2cc(C(F)(F)F)ccc12 | inconclusive: 2.51 µM [activator, full curve, poor fit] |  |
| O=C(Nc1ccc(-c2csc(-c3ccccc3)n2)cc1)c1ccccc1Cl | inconclusive: 35.5 µM [activator, single point] |  |
| COc1ccc(S(=O)(=O)N2CCOCC2)cc1NC(=O)CCNC(=O)c1ccc([N+](=O)[O-])cc1 | inconclusive: 56.2 µM [activator, single point] |  |
| C/C(=C\C(=O)c1ccc(Br)cc1)NNC(=O)c1ccc(O)cc1 | inactive |  |
| O=C(NCC1CC1)Nc1cccc(Cl)c1 | inactive |  |
| CCOC(=O)c1cc(CC)sc1NC(=O)COC(=O)c1cnccn1 | inactive |  |
| NC(=O)c1ccc(NCC2CCCO2)c([N+](=O)[O-])c1 (stereo not given) | inactive |  |
| CCOC(=O)C1=C(C)N(CCCCCC(=O)O)C(=O)NC1c1ccc([N+](=O)[O-])cc1 (stereo not given) | inconclusive: 2.82 µM [activator, full curve] |  |
| CN1C[C@@H]2C[C@@H](c3ccc(C#CC(C)(C)O)s3)N3CCC[C@@]23C1=O | inconclusive: 7.08 µM [activator, partial curve] |  |
| CN1CCN(Cc2cn[nH]c2-c2ccc(F)cc2F)[C@@H](c2ccccc2)C1 | inconclusive: 44.7 µM [activator, partial curve, poor fit] |  |
| c1ccc(CN2CCC(Nc3nc(-c4cccs4)nc4ccccc34)CC2)cc1 | inactive |  |
| CCOC(=O)CCc1c(C)c2ccc(OCC)c(C)c2oc1=O | inconclusive: 22.4 µM [activator, partial curve, poor fit] |  |
| CCn1ncc(/C=C/C(=O)C2CC2)c1C |  | inconclusive: 44.4% [activator] |
| O=C(Cc1csc(N2CCOCC2)n1)N/N=C/c1ccc(O)c(O)c1O | inactive |  |
| CC1CC(C)CN(CCOc2cccc(Cl)c2Cl)C1 (stereo not given) | inactive |  |
| Cc1cc(C)n(-c2ccn(Cc3ccc(Cl)cc3Cl)c(=O)n2)n1 | inconclusive: 22.4 µM [activator, partial curve] |  |

— PubChem BioAssay AID743266 (National Center for Advancing Translational Sciences (NCATS), 2014)
